# Reference: PubChem BioAssay AID588497 (NMMLSC, 2011)
# About 780 (0.22%) of roughly 360,000 compounds were called active. The shares of active, inactive and inconclusive entries below differ from those in the screen. No stated cut-off is given here; in the data, active means inhibition above about 35% (passing the limit was not always enough); inconclusive means no clear call, values can overlap the other calls.
# System: Botulinum neurotoxin type F light chain protease (Clostridium botulinum)
# Experiment: BoNT/F light chain protease inhibitors, primary screen, biochemical, flow cytometry, MLPCN library (AID 588497); further: plate controls were buffer without enzyme for full effect and enzyme alone for no effect
# Settings: Multiplex microsphere protease cleavage assay, at 10 µM, active compounds read high
row,SMILES,inhibition
1,CN1CCOc2c1cnn(CCO)c2=O,inactive: -3.7%
2,CN(C)/C=C/C(=O)c1ccc(F)cc1F,inconclusive: 116%
3,O=C(/C=C/c1ccc2c(c1)OCO2)NCc1ccncc1,inconclusive: 14.2%
4,CN1CCN(c2nc3c(c(=O)[nH]c(=O)n3C)n2Cc2ccccc2)CC1,inconclusive: 20.3%
5,O=S(=O)(Nc1ccc(S(=O)(=O)N2CCCCC2)cc1)c1ccc(Br)s1,inconclusive: -24.5%
6,COc1ccc(NS(=O)(=O)c2cc(OC)ccc2OC)cc1,inconclusive: -53.9%
7,CCCC(=O)Nc1c2c(nn1-c1ccc([N+](=O)[O-])cc1)CS(=O)(=O)C2,inactive: -1%
8,CCCNC(=O)Cc1c(C)oc2ccccc12,inconclusive: 29.7%
9,Cc1ccc(N2C(=O)C3C4C=CC(CC4)C3C2=O)cc1Cl (configuration not stated),inconclusive: -26.2%
10,Cc1cccc(C)c1OC(=O)c1ccccc1,inactive: 3.8%
11,COc1ccc(NC(=O)CCC(=O)N2CCC(c3ccccc3)=N2)cc1S(=O)(=O)N1CCCCC1,inactive: -11%
12,NC(=O)CSc1nnc(-c2ccccn2)n1Cc1ccco1,inconclusive: 9.3%
13,CC(C(=O)NCC1CCCO1)N1C(=O)C2C3CC(C(Br)C3Br)C2C1=O (configuration not stated),inconclusive: 20.8%
14,COC(=O)Nc1nnc(-c2ccccc2OC)s1,inconclusive: -22.1%
15,CCN1C(=O)C(CC(=O)Nc2ccc(OC)cc2)N(CCN2CCOCC2)C1=S (configuration not stated),inconclusive: 1.3%
16,O=C1C2CCCN2C(=O)N1CCCN1CCN(c2ccc([N+](=O)[O-])cc2)CC1 (configuration not stated),active: 46.5%
17,Clc1ccccc1CSc1ncn(-c2ccccc2)n1,inactive: 0.4%
18,CCCCn1c(N)c(N(Cc2ccccc2OC)C(=O)CCC(C)C)c(=O)[nH]c1=O,inactive: 2.5%
19,O=C(CC1SC(N2CCCC2)=NC1=O)Nc1ccc(C(=O)N2CCN(c3cccc(Cl)c3)CC2)cc1 (configuration not stated),inactive: 9.1%
20,Cc1ccccc1OCCN1CCC(Cc2ccccc2)CC1,inactive: -11.4%
21,CCOC(=O)c1c(NC(=O)COC(=O)c2cnccn2)sc(C(=O)NC)c1C,inconclusive: -2.3%
22,O=C(NC1CCCC1)C1CCCN(S(=O)(=O)c2ccc(-n3cnnn3)cc2)C1 (configuration not stated),inactive: 2.8%
23,CCc1ccccc1Cn1c(=O)oc2cccnc21,inconclusive: -0.2%

row,SMILES,inhibition
1,CCOC(=O)C1CCCN(C2=NC(=O)/C(=C/c3ccc(OC)cc3OC)S2)C1 (configuration not stated),inconclusive: -22.4%
2,CC(CN1CCCCC1)OC(=O)COc1ccc(Cl)cc1 (configuration not stated),inconclusive: -19.3%
3,CCN(C(=O)COC(=O)c1cnc(C)cn1)C1CCS(=O)(=O)C1 (configuration not stated),inconclusive: 6.4%
4,CCOC(=O)/C(=N\Nc1cc(Cl)ccc1Cl)N1CCN(CC)CC1,inactive: 4.2%
5,CC1N=C(c2ccccc2Cl)c2cc(Br)ccc2NC1=O (configuration not stated),inconclusive: 58.3%
6,O=C(CCOc1ccc(F)cc1)Nc1nccs1,inconclusive: -66.6%
7,COc1ccc(-n2c(O)c(C=NCCN3CCN(C(C)=O)CC3)c(=O)[nH]c2=S)cc1,inconclusive: 11%
8,COc1cc2c(cc1OC)-c1cc(Nc3ccc(N(C)C)cc3)nc(=O)n1CC2,inconclusive: 187%
9,CC(C)CNc1c2c(nc3ccccc13)CCC2,inconclusive: -23.7%
10,CN(CC(=O)Nc1ccc(Cl)cc1)C(=O)c1sccc1-c1ccccc1,inactive: 1.7%
11,CCCNC(=S)N1CCN(c2nc(-c3cccc(OC)c3)cs2)CC1,inconclusive: -0.4%
12,CC(C)(C)C1CCC(C(=O)Nc2nccs2)CC1 (configuration not stated),inconclusive: 11.3%
13,CCn1cc(C(=O)NCc2ccccc2Cl)cn1,active: 40%
14,CNC(=O)CSc1nnc(-c2ccco2)n1-c1cccc(OC)c1,inconclusive: 1.6%
15,CCNC(=S)/N=C(/Nc1ccccc1)Nc1nc(C)cc(C)n1,inconclusive: -14.6%
16,Cc1cc(C)cc(NC(=S)N(C)C)c1,inconclusive: -61.1%
17,COc1ccccc1OCCC(=O)OCCN1C(=O)c2ccccc2C1=O,inconclusive: -15.7%
18,CCOc1cc(C(=S)N2CCOCC2)ccc1OC(=O)c1ccc(C)cc1,inconclusive: -3.4%
19,COC(=O)COc1ccc(S(=O)(=O)Nc2ccc3c(c2)OCCO3)cc1C,inconclusive: -30.2%
20,O=C(Nc1cccc(Cl)c1)Nc1csc([N+](=O)[O-])c1,inconclusive: -134%
21,O=C(C[n+]1ccccc1)Nc1ccc(Cl)c([N+](=O)[O-])c1,inconclusive: 18.3%
22,Cn1c(=O)c2cc(NC(=O)NCCc3cccs3)ccc2n1-c1ccc(C(C)(C)C)cc1,inactive: -3.6%
23,COC(=O)c1cn(N(C)c2ncc(C(F)(F)F)cc2Cl)c(=O)c2ccccc12,inactive: 3%

row,SMILES,inhibition
1,COc1ccc(N=Cc2c(O)n(-c3cccc(C)n3)c(=O)c3ccccc23)c(OC)c1,inconclusive: 54.9%
2,COc1ccc(/C=C2\N=C(c3ccccc3)NNC2=O)cc1,inconclusive: 12.9%
3,Cc1ccc(C)c(CN2C(=O)COc3ccccc32)c1,inconclusive: -5.3%
4,N#Cc1cccc(C#N)c1Oc1ccc(S(=O)(=O)Nc2ccccc2)cc1,inconclusive: 1.5%
5,S=c1[nH]nc(-c2ccncc2)n1/N=C/c1cn(-c2ccccc2)nc1-c1ccc(Cl)cc1,inconclusive: -4.1%
6,Cc1ccc(NC(=O)Cn2c(=O)oc3ccccc32)cc1Cl,inconclusive: 6.9%
7,CCOC(=O)c1cc2c(=O)n3ccccc3nc2n(CCOC)c1=NC(=O)c1ccncc1,inactive: 24%
8,COc1ccc(C(=O)NCCCc2nc3ccccc3n2Cc2cc(C)ccc2C)cc1OC,inactive: -3.3%
9,N#C/C(=C\c1c(Cl)cccc1Cl)c1nn(-c2ccccc2)c(-n2cccc2)c1C#N,inconclusive: 32.6%
10,S=C(c1ccc(-c2ccccc2Cl)o1)N1CCCCC1,inactive: -0.8%
11,CC(=O)/C(=N/Nc1ccc(Br)cc1)N1CCCc2ccccc21,inconclusive: 17%
12,O=C(CCOc1cccc(Br)c1)Nc1ccc(F)c(S(=O)(=O)N2CCOCC2)c1,inconclusive: 6.7%
13,CC(C)OP(=O)(c1ccc(N(C)C)cc1)C(O)c1cccnc1 (configuration not stated),inconclusive: 29.4%
14,CC(=O)N(C(C)=O)c1nc(-c2ccccc2)cn1/N=C/c1cccc([N+](=O)[O-])c1,inconclusive: 13.7%
15,CSc1ccc(CNc2ncc(-c3cccc([N+](=O)[O-])c3)n2C)cc1,inconclusive: 33.5%
16,Nn1c(SCc2ccc(F)cc2)nnc1-c1ccncc1,active: 54.6%
17,COc1cc(Cl)c(C)cc1NC(=O)CSc1ccc(C)cc1,inactive: -3.7%
18,Cc1ccc(N=C2C(=O)Nc3ccccc32)cc1C,inconclusive: -14.6%
19,COc1ccc(N(C)C(=O)Cc2c(C(=O)O)[nH]c3ccccc23)cc1,inactive: -1.4%
20,Cc1ccnn1CCC(=O)O,inactive: 0.4%
21,Oc1cccc(Nc2c3ccccc3nc3ccccc23)c1,inconclusive: -21.7%
22,CCOC(=O)Cc1csc(NC(=O)CCc2ccccc2)n1,inconclusive: 2.8%
23,O=C(/C=C/c1ccco1)NCC1OCCc2ccccc21 (configuration not stated),inconclusive: -58%

row,SMILES,inhibition
1,Cc1ccc(S(=O)(=O)NCCCCCC(=O)N(C)C)cc1,inactive: 1.9%
2,C=CCN(c1ccc(C(=O)NCCN2CCOCC2)cc1)S(C)(=O)=O,inconclusive: -21.5%
3,O=C1C2C3C=CC(C3)C2C(=O)N1CC1CCCO1 (configuration not stated),inactive: -1.1%
4,O=C(N/N=C/c1c(O)ccc2ccccc12)c1ccc(CO)nc1,active: 40%
5,Nc1ccc(C(=O)Oc2ccc([N+](=O)[O-])cc2)cc1,inconclusive: 23.1%
6,Cc1ccc(S(=O)(=O)Nc2ccc3cc([N+](=O)[O-])ccc3c2[N+](=O)[O-])cc1,inactive: 0.6%
7,CCCC(O)(c1ccc(Cl)cc1)C(CN1CCOCC1)c1ccc(Cl)cc1 (configuration not stated),inactive: 9.2%
8,COc1cccc(C(=O)Nc2nnc(S(=O)(=O)Nc3cccc(C)c3)s2)c1,inactive: -15%
9,Cc1noc(NS(=O)(=O)c2ccc(NC(=O)C(F)(F)F)cc2)c1C,inconclusive: -25.6%
10,CC(/C=N/n1c(-c2cc(C)[nH]n2)n[nH]c1=S)=C\c1ccco1,inconclusive: -59.3%
11,COC(=O)Cc1c(C)c2ccc(OC3CCCCC3=O)c(C)c2oc1=O (configuration not stated),inconclusive: -0.7%
12,CCOc1nc(-c2ccccc2)ccc1-c1noc(-c2ccncc2)n1,inactive: 12.8%
13,COCCN(C(=S)Nc1ccc(OC)c(Cl)c1)C1CCN(C(C)=O)CC1,inactive: -2.6%
14,O=C(NC1CCN(S(=O)(=O)c2ccccc2)CC1)c1ccc(F)cc1,inconclusive: 21.5%
15,Cc1ccccc1NS(=O)(=O)c1cccc(-c2nnc(-c3ccccc3)o2)c1,inconclusive: -9.3%
16,N#CCC(=O)Nc1ccc(C(=O)OC(C(=O)Nc2cc(C(F)(F)F)ccc2Cl)c2ccccc2)cc1 (configuration not stated),inconclusive: 13.9%
17,COC(=O)CCC(=O)N1CCCC(C(=O)c2cc(F)ccc2F)C1 (configuration not stated),inconclusive: -10.1%
18,OCCNc1ncnc2c1c(-c1ccccc1)c(-c1ccccc1)n2Cc1ccco1,inactive: 0.6%
19,O=c1ccnc2n1COCS2,inconclusive: -57.1%
20,Cc1cc2n(n1)SC(Nc1cc(Cl)ccc1Cl)N2 (configuration not stated),inactive: 0.9%
21,Cc1ccc(S(=O)(=O)c2cc(C)cc(S(=O)(=O)Nc3ccc(C(=O)O)cc3)c2C)cc1,active: 39.4%
22,CC(=O)Nc1ccc(NC(=O)C(C)OC(=O)C(C)SCC(=O)Nc2ccc(C)cc2)cc1 (configuration not stated),inconclusive: -13.5%
23,COC1C=CC(CNC(=O)c2cc3c(=O)n4cccc(C)c4nc3n2C)(OC)O1 (configuration not stated),inactive: 0.9%

# A draw from above in order of heavy-atom count, smallest number first.
row,SMILES,inhibition
4,O=C(N/N=C/c1c(O)ccc2ccccc12)c1ccc(CO)nc1,active: 40%
14,O=C(NC1CCN(S(=O)(=O)c2ccccc2)CC1)c1ccc(F)cc1,inconclusive: 21.5%
8,COc1cccc(C(=O)Nc2nnc(S(=O)(=O)Nc3cccc(C)c3)s2)c1,inactive: -15%

# As entered above.
# inhibition with `Cc1ccc(S(=O)(=O)c2cc(C)cc(S(=O)(=O)Nc3ccc(C(=O)O)cc3)c2C)cc1` is entered as active: 39.4%
# inhibition with `CCOc1nc(-c2ccccc2)ccc1-c1noc(-c2ccncc2)n1` is entered as inactive: 12.8%
